# Source: PMC5958099
# Protein sequences, listed by entry. Tags and fused reporters are not part of them.
# UniProt Q99459: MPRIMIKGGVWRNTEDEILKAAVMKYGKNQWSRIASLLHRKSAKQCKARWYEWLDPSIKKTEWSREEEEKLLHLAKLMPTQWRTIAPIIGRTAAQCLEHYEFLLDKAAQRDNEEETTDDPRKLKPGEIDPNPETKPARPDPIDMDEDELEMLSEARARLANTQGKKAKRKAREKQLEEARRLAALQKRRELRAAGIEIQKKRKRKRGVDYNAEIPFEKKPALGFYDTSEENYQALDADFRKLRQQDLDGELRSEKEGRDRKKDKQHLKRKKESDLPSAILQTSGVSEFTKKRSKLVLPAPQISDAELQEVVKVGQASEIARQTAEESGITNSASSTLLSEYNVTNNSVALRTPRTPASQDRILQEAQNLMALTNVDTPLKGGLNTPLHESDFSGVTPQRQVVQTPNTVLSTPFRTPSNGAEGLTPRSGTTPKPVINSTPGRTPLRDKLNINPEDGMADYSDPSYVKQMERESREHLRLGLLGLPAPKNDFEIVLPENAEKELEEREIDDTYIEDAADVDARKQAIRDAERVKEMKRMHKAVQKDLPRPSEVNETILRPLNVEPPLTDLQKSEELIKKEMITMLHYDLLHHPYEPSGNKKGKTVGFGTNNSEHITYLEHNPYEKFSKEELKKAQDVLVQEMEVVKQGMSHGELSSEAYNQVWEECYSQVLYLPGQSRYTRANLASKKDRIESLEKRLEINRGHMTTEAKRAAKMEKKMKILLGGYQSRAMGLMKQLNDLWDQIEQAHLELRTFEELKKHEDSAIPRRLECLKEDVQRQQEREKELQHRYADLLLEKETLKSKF
# UniProt O75643: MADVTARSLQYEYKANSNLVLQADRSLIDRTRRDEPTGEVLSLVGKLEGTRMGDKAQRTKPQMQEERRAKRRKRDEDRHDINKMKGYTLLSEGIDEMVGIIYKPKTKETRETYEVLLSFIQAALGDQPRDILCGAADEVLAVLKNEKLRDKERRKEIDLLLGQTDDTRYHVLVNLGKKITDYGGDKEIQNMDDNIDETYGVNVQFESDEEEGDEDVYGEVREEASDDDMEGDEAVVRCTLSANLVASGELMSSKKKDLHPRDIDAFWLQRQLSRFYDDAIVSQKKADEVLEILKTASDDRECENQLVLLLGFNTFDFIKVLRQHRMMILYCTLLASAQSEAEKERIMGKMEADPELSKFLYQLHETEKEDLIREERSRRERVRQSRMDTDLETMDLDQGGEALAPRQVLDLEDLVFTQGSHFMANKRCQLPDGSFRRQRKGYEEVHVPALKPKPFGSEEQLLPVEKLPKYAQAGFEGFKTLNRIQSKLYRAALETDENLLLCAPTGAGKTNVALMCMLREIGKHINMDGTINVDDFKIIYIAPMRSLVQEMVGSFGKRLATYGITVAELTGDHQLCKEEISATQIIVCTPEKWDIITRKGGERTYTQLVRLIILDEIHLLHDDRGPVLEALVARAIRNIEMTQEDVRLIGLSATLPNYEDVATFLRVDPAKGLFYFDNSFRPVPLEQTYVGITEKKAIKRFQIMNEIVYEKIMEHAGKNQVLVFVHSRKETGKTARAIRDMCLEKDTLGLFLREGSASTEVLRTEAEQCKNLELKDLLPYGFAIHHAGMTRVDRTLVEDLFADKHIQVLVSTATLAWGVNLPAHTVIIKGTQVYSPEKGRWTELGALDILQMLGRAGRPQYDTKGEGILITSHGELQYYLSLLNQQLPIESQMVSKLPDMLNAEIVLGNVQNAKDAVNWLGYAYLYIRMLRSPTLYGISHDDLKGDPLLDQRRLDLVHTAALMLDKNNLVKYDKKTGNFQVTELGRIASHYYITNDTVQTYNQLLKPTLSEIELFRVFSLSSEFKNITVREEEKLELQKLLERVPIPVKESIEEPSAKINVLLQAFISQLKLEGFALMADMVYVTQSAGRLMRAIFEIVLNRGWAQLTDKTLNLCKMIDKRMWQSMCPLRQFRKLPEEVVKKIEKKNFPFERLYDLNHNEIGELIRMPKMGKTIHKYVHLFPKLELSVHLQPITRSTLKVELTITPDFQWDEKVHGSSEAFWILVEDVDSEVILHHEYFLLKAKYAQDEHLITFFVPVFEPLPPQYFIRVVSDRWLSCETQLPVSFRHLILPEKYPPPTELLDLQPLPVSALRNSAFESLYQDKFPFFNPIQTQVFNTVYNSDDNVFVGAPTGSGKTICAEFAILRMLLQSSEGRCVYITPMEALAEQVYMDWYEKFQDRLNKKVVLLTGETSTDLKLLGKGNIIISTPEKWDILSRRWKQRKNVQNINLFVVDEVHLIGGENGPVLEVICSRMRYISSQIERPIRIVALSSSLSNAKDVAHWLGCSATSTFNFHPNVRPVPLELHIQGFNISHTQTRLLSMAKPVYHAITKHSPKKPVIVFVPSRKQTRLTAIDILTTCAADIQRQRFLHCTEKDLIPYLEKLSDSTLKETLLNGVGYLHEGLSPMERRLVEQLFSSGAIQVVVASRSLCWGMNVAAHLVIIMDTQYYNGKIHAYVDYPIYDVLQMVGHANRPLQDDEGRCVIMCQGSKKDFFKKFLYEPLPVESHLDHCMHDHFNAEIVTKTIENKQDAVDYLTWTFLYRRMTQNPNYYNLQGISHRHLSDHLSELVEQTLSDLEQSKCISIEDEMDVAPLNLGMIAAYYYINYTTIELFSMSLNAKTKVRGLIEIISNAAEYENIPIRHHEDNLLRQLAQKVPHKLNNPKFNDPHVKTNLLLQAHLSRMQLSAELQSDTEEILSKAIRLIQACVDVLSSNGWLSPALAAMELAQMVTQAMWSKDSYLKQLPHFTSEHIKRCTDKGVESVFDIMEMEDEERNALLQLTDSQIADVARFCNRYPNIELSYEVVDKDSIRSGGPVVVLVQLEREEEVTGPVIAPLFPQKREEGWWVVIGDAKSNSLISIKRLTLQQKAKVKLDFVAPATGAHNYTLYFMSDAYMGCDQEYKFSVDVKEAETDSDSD
# Results are given in words; binding and its absence hold for the method and conditions named. Binding seen in cells or lysates may run through a third protein. Some entries that bind do so weakly or less than the wild type. Tags and fused reporters may be left off the sequences shown.
# T1: GFP-DNAJC17 fusion protein (mouse) (UniProt Q91WT4)
# T1 sequence: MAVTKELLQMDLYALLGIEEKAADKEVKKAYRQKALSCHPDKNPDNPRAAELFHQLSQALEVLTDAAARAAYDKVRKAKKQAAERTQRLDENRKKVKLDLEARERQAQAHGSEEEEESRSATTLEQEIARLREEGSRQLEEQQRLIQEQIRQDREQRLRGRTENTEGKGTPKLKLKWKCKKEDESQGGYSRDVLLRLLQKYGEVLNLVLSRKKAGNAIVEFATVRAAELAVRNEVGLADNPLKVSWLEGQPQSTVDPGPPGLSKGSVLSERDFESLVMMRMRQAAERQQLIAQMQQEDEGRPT
# B1: XAB2 (protein, UniProt Q9HCS7 1-855)
# chain: MVVMARLSRPERPDLVFEEEDLPYEEEIMRNQFSVKCWLRYIEFKQGAPKPRLNQLYERALKLLPCSYKLWYRYLKARRAQVKHRCVTDPAYEDVNNCHERAFVFMHKMPRLWLDYCQFLMDQGRVTHTRRTFDRALRALPITQHSRIWPLYLRFLRSHPLPETAVRGYRRFLKLSPESAEEYIEYLKSSDRLDEAAQRLATVVNDERFVSKAGKSNYQLWHELCDLISQNPDKVQSLNVDAIIRGGLTRFTDQLGKLWCSLADYYIRSGHFEKARDVYEEAIRTVMTVRDFTQVFDSYAQFEESMIAAKMETASELGREEEDDVDLELRLARFEQLISRRPLLLNSVLLRQNPHHVHEWHKRVALHQGRPREIINTYTEAVQTVDPFKATGKPHTLWVAFAKFYEDNGQLDDARVILEKATKVNFKQVDDLASVWCQCGELELRHENYDEALRLLRKATALPARRAEYFDGSEPVQNRVYKSLKVWSMLADLEESLGTFQSTKAVYDRILDLRIATPQIVINYAMFLEEHKYFEESFKAYERGISLFKWPNVSDIWSTYLTKFIARYGGRKLERARDLFEQALDGCPPKYAKTLYLLYAQLEEEWGLARHAMAVYERATRAVEPAQQYDMFNIYIKRAAEIYGVTHTRGIYQKAIEVLSDEHAREMCLRFADMECKLGEIDRARAIYSFCSQICDPRTTGAFWQTWKDFEVRHGNEDTIKEMLRIRRSVQATYNTQVNFMASQMLKVSGSATGTVSDLAPGQSGMDDMKLLEQRAEQLAAEAERDQPLRAQSKILFVRSDASREELAELAQQVNPEEIQLGEDEDEDEMDLEPNEVRLEQQSVPAAVFGSLKED
# B2: PLRG1 (protein, UniProt O43660 1-514)
# chain: MVEEVQKHSVHTLVFRSLKRTHDMFVADNGKPVPLDEESHKRKMAIKLRNEYGPVLHMPTSKENLKEKGPQNATDSYVHKQYPANQGQEVEYFVAGTHPYPPGPGVALTADTKIQRMPSESAAQSLAVALPLQTKADANRTAPSGSEYRHPGASDRPQPTAMNSIVMETGNTKNSALMAKKAPTMPKPQWHPPWKLYRVISGHLGWVRCIAVEPGNQWFVTGSADRTIKIWDLASGKLKLSLTGHISTVRGVIVSTRSPYLFSCGEDKQVKCWDLEYNKVIRHYHGHLSAVYGLDLHPTIDVLVTCSRDSTARIWDVRTKASVHTLSGHTNAVATVRCQAAEPQIITGSHDTTIRLWDLVAGKTRVTLTNHKKSVRAVVLHPRHYTFASGSPDNIKQWKFPDGSFIQNLSGHNAIINTLTVNSDGVLVSGADNGTMHLWDWRTGYNFQRVHAAVQPGSLDSESGIFACAFDQSESRLLTAEADKTIKVYREDDTATEETHPVSWKPEIIKRKRF
# Molecular target: T1, GFP-DNAJC17 fusion protein (mouse)
# Assay: co-IP; lysates of tetracycline-induced GFP-DNAJC17 and GFP HeLa cells, GFP-Trap_A affinity beads (Chromotek), immunoprecipitates analysed by Western blotting
molecule,measurement,value
CDC5L (from UniProt Q99459 1-802),binding,binds
SNRNP200 (from UniProt O75643 1-2136),binding,binds
B1,binding,binds
B2,binding,binds
